Where two headings read alike, the source gives them in different places. These are yes or no findings as the source states them, for the method shown. For some assays here: A result given as binding can be weak or reduced; the word gives no strength.
Assays:
[1] = molecular target: GammaD-crystallin W130E; assay: SEC
[2] = molecular target: GammaD-crystallin W130E; assay: SEC; remark: listed apart in the source

binding [1]: binds
binding [2]: no binding (only at pH 7.5)
B1: HSPB5 WT (full length) (protein, UniProt P02511 1-175)
chain: MDIAIHHPWIRRPFFPFHSPSRLFDQFFGEHLLESDLFPTSTSLSPFYLRPPSFLRAPSWFDTGLSEMRLEKDRFSVNLDVKHFSPEELKVKVLGDVIEVHGKHEERQDEHGFISREFHRKYRIPADVDPLTITSSLSSDGVLTVNGPRKQVSGPERTIPITREEKPAVTAAPKK

— doi:10.1101/2022.05.30.493970
